Reference: US20110176995A1 (Chugai, published 2011)
No constants are given. Whether binding was seen depends on the method and setting. Some results given as binding are weak or reduced against the parent protein; the word gives no strength. Tags and fused reporters may be left off the sequences shown. Each block holds one binder with its values, some of them ahead of it.

What was measured:
[1] = target: T1, GST fusion protein with GPR49 amino acids from positions 517 to 537 (human); test: Western blotting of GST fusion proteins
T1 sequence: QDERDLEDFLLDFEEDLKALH

[2] = target: T2, GST fusion protein with GPR49 amino acids from positions 510 to 529 (human); test: Western blotting of GST fusion proteins
T2 sequence: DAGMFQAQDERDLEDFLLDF

binding [1]: binds
B1: anti-GPR49 monoclonal antibody 2U1E-1 (antibody, mouse IgG1, V domains shown)
VH: QVQLQQPGAELVEPGASVKLSCKASGYTFTNYYMYWVKQRPGQGLEWIGGINPNNGGTNFNEKFKSKATLTVDKSSSTAYMQLSSLTSEDSAVYYCTGIYYRYNWHFGVWGAGTTVTVSS
VL: DVLMTQTPLSLPVSLGDQASISCRSSQTIVHSNGNTYLEWYLQKPGQSPKLLIYKVSNRFSGVPDRFSGSGSGTDFTLKIYRVEAEDLGIYYCFQGSHVPWTFGGGTKLEIK
notes: Mouse IgG1 from hybridoma; light chain amplified with a kappa primer

binding [2]: binds
B2: anti-GPR49 monoclonal antibody 2T15E-2 (antibody, mouse IgG1, V domains shown)
VH: EVQLVESGGGLVKPGGSLKISCAASGFTSSNYAMSWVRQTPEKRLEWVATISSGGGYTYYPDSEKGRFAISRDNAKNTLYLQMSGLRSEDTAMYYCATQLYYRSHYYSMDYWGQGSSVTVSS
VL: QIVLTQSPAIMSASPGEKVTMTCSASSSISYMHWYQQKSGTSPKRWIYDTSKLASGVPARFSGSGSGTSYSLTISSMEAEDAATYYCQQWHSKPATFGAGTKLELK
notes: as for B1
